Reference: publication PMC13170660
Results are given in words; binding and its absence hold for the method and conditions named. In cells and extracts the contact can be indirect. A yes stands for co-enrichment or nearness to the bait. Other partners may have been found.

Sequences of proteins named here, by UniProt entry; tags and fusion partners are left off. A change or cut given only in a name is not applied to a line headed by its entry. Residues count along the entry.
UniProt P15116, residues 160-906: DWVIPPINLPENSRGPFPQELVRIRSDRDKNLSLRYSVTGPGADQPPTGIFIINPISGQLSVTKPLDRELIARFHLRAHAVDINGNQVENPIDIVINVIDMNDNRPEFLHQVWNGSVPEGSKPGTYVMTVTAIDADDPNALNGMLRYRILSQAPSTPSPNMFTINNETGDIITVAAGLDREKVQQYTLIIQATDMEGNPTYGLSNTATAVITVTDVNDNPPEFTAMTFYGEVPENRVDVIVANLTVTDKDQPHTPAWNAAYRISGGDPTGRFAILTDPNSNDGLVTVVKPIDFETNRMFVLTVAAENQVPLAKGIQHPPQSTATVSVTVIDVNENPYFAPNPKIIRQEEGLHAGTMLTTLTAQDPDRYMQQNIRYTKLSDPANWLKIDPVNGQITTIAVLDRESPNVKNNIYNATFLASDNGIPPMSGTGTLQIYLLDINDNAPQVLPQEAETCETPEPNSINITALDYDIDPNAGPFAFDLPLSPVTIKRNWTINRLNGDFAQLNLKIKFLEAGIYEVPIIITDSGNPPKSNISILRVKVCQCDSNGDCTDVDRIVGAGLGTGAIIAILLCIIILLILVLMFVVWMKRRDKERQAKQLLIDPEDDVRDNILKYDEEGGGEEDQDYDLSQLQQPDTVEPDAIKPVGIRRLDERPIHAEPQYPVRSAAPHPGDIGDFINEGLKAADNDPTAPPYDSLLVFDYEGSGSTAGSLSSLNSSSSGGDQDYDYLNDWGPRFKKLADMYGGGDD
UniProt Q6PHS9, residues 19-1154: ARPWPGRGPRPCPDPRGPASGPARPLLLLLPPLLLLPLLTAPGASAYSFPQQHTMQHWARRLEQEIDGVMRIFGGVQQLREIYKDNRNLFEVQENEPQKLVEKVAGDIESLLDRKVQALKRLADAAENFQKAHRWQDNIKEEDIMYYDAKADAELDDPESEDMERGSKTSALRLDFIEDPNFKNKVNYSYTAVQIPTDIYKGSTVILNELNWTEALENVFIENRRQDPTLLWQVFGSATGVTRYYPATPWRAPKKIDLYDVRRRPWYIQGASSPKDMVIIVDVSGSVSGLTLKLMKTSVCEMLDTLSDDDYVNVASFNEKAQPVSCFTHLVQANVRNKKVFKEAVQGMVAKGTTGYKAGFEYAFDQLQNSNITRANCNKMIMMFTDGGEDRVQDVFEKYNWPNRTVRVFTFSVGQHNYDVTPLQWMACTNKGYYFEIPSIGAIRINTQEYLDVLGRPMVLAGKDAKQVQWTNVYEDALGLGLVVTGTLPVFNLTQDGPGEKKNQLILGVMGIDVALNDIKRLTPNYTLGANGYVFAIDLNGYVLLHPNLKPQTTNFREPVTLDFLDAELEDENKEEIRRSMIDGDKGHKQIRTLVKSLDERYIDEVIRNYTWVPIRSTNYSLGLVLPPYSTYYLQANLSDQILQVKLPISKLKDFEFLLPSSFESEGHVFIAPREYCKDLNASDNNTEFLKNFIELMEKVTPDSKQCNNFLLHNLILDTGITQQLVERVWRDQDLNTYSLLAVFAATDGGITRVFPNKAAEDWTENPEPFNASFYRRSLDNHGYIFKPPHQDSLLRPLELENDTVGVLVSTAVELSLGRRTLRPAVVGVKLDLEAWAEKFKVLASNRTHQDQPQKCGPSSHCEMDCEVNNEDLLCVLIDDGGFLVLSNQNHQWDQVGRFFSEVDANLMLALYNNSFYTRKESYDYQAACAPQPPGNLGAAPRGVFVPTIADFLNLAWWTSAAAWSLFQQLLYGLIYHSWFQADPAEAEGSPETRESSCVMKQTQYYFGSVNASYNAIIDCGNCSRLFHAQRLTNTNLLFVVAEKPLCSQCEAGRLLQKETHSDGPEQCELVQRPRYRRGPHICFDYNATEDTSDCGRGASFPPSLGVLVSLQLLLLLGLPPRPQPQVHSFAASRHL
UniProt Q810U4, residues 30-1256: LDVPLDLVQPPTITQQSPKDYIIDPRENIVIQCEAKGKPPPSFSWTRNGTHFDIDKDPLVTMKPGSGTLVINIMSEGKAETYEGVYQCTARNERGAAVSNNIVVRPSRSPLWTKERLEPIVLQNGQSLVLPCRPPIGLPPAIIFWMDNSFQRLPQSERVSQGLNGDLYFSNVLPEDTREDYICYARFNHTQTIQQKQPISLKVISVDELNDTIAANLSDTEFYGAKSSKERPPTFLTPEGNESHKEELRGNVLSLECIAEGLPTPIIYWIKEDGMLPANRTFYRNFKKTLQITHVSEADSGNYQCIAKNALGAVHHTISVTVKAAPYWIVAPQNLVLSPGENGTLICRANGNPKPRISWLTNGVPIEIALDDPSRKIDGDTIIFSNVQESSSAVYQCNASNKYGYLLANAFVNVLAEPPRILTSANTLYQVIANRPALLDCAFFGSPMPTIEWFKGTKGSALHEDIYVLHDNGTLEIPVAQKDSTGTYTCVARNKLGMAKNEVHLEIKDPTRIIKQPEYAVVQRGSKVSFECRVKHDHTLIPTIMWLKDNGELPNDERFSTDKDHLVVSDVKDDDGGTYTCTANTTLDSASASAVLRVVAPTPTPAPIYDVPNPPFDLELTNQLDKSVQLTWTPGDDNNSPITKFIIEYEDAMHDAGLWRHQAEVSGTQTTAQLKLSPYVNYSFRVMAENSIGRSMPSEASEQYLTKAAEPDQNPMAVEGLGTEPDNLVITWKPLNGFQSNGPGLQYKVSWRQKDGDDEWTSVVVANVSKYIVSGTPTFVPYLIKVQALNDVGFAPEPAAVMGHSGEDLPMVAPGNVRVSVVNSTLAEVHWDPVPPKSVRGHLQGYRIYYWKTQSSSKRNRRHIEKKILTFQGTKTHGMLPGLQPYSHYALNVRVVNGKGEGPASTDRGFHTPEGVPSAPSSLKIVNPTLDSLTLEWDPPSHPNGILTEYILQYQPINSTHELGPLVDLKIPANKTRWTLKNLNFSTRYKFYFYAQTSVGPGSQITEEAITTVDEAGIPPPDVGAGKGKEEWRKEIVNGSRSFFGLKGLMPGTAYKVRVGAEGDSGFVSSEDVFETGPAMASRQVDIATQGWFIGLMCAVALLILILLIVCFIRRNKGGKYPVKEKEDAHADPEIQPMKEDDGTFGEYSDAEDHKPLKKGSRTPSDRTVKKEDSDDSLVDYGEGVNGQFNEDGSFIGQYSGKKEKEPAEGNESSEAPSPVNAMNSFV
UniProt Q61738, residues 34-1179: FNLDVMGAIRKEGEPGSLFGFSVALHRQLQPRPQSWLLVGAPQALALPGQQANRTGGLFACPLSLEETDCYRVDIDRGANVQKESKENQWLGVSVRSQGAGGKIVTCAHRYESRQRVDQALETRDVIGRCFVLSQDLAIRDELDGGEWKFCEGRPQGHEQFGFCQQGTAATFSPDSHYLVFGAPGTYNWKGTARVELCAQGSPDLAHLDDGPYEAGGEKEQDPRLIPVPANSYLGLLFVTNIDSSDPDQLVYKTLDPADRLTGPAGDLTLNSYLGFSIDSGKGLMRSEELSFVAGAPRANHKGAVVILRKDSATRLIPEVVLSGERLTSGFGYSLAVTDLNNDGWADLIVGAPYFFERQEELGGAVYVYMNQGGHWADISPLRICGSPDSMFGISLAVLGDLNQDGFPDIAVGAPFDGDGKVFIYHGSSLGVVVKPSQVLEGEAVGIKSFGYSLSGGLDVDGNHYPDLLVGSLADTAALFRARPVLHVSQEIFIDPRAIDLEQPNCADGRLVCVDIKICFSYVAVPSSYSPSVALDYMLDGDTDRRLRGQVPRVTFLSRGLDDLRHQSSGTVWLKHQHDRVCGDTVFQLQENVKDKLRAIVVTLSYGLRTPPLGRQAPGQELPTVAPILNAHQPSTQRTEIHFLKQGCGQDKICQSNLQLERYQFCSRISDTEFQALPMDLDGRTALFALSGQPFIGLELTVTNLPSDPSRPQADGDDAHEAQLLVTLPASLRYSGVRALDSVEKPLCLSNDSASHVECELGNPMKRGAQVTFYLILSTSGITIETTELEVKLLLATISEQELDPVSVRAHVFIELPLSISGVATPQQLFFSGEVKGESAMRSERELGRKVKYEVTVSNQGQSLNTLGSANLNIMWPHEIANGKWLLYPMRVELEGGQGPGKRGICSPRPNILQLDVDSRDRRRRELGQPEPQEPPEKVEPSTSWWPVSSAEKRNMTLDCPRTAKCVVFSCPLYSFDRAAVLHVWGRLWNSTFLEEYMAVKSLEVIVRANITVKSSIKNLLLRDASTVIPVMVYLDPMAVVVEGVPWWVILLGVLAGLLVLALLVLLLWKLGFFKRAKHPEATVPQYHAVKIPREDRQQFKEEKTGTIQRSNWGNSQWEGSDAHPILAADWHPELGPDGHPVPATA
UniProt Q8BHK2, residues 25-215: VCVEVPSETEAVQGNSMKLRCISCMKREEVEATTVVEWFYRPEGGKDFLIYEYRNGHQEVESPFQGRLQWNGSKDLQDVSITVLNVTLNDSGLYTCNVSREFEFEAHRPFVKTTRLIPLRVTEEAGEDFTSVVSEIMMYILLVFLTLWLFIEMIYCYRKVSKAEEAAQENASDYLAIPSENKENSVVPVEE
UniProt B1AS29, residues 32-919: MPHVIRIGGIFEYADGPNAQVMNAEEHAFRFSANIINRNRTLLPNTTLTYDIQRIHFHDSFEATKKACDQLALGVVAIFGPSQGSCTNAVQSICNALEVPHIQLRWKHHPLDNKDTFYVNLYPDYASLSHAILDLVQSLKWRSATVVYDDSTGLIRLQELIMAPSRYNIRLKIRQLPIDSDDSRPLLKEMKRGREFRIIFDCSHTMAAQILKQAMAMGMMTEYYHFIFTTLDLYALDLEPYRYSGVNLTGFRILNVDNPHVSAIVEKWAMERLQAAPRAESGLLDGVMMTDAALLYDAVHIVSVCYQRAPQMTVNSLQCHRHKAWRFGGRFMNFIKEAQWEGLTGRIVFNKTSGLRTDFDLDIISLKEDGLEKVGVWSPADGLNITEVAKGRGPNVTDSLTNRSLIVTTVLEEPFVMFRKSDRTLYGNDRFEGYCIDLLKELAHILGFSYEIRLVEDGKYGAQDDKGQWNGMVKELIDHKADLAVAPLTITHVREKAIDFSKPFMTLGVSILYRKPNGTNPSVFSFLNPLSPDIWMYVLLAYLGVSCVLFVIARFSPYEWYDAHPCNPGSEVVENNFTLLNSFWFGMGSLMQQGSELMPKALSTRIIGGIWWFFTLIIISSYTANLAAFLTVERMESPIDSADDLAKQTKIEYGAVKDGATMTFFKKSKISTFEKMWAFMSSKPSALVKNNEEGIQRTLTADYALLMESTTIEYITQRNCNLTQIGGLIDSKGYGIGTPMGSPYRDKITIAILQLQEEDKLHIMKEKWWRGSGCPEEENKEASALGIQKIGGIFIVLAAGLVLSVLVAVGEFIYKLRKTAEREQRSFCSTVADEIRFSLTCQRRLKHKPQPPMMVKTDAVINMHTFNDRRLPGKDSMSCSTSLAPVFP
UniProt P58391: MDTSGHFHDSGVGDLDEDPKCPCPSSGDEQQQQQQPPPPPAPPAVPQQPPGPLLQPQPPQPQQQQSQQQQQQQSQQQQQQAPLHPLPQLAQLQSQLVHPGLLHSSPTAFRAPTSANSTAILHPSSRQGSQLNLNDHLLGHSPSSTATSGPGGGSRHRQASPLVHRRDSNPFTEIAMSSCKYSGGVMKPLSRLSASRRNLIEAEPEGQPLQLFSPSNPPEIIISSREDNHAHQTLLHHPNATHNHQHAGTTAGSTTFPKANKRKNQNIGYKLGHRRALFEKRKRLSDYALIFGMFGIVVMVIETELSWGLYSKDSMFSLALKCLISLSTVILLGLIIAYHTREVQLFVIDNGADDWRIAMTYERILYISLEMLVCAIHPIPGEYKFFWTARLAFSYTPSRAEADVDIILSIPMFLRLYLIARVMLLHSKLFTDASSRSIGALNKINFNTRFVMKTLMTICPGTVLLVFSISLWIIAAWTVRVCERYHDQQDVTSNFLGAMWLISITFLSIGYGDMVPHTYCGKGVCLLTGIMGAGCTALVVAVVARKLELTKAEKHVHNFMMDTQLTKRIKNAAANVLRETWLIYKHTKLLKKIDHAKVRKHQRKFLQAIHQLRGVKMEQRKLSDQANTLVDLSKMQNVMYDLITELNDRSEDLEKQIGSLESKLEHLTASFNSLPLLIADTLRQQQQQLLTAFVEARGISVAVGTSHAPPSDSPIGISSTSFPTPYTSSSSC
UniProt Q8BLK3: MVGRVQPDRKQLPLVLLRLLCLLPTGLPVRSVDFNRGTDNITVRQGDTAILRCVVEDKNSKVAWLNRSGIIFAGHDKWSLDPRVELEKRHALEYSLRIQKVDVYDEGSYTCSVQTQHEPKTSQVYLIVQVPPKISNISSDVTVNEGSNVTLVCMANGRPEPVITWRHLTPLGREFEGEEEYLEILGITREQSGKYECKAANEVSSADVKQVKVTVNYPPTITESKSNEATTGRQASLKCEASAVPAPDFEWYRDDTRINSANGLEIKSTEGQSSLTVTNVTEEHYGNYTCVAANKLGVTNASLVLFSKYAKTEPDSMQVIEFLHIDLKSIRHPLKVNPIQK
UniProt Q56A07, residues 30-215: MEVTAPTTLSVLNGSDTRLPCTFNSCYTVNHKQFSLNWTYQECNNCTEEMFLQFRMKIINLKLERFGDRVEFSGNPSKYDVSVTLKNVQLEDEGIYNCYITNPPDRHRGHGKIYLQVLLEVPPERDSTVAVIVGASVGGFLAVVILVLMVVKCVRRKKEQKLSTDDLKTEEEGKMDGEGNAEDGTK

T1: IgLON5 (mouse (endogenous in primary hippocampal neurons)) (UniProt Q8HW98)
T1 sequence: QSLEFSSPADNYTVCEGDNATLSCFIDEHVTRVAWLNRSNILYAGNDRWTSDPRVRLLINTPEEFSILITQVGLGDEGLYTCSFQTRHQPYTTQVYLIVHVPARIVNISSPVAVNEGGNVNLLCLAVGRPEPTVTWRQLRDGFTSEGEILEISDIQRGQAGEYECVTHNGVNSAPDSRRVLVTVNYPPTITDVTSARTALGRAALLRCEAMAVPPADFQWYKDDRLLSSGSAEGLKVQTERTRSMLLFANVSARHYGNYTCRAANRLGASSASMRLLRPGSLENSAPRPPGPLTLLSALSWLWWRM

B1: Cntn1 (protein, UniProt P12960 21-1001)
chain: DFTWHRRYGHGVSEEDKGFGPIFEEQPINTIYPEESLEGKVSLNCRARASPFPVYKWRMNNGDVDLTNDRYSMVGGNLVINNPDKQKDAGVYYCLASNNYGMVRSTEATLSFGYLDPFPPEERPEVKVKEGKGMVLLCDPPYHFPDDLSYRWLLNEFPVFITMDKRRFVSQTNGNLYIANVESSDRGNYSCFVSSPSITKSVFSKFIPLIPIPERTTKPYPADIVVQFKDIYTMMGQNVTLECFALGNPVPDIRWRKVLEPMPSTAEISTSGAVLKIFNIQLEDEGLYECEAENIRGKDKHQARIYVQAFPEWVEHINDTEVDIGSDLYWPCIATGKPIPTIRWLKNGYSYHKGELRLYDVTFENAGMYQCIAENAYGSIYANAELKILALAPTFEMNPMKKKILAAKGGRVIIECKPKAAPKPKFSWSKGTEWLVNSSRILIWEDGSLEINNITRNDGGIYTCFAENNRGKANSTGTLVITNPTRIILAPINADITVGENATMQCAASFDPALDLTFVWSFNGYVIDFNKEITHIHYQRNFMLDANGELLIRNAQLKHAGRYTCTAQTIVDNSSASADLVVRGPPGPPGGLRIEDIRATSVALTWSRGSDNHSPISKYTIQTKTILSDDWKDAKTDPPIIEGNMESAKAVDLIPWMEYEFRVVATNTLGTGEPSIPSNRIKTDGAAPNVAPSDVGGGGGTNRELTITWAPLSREYHYGNNFGYIVAFKPFDGEEWKKVTVTNPDTGRYVHKDETMTPSTAFQVKVKAFNNKGDGPYSLVAVINSAQDAPSEAPTEVGVKVLSSSEISVHWKHVLEKIVESYQIRYWAGHDKEAAAHRVQVTSQEYSARLENLLPDTQYFIEVGACNSAGCGPSSDVIETFTRKAPPSQPPRIISSVRSGSRYIITWDHVVALSNESTVTGYKILYRPDGQHDGKLFSTHKHSIEVPIPRDGEYVVEVRAHSDGGDGVVSQVKISGVSTLS
B2: Cntn2 (protein, UniProt Q61330 31-1014)
chain: QGTPATFGPVFEEQPVGLLFPEESAEDQVTLACRARASPPATYRWKMNGTEMNLEPGSRHQLMGGNLVIMSPTKAQDAGVYQCLASNPVGTVVSKEAVLRFGFLQEFSKEERDPVKTHEGWGVMLPCNPPAHYPGLSYRWLLNEFPNFIPTDGRHFVSQTTGNLYIARTNASDLGNYSCLATSHLDFSTKSVFSKFAQLNLAAEDPRLFAPSIKARFPPETYALVGQQVTLECFAFGNPVPRIKWRKVDGSLSPQWGTAEPTLQIPSVSFEDEGTYECEAENSKGRDTVQGRIIVQAQPEWLKVISDTEADIGSNLRWGCAAAGKPRPMVRWLRNGEPLASQNRVEVLAGDLRFSKLNLEDSGMYQCVAENKHGTIYASAELAVQALAPDFRQNPVRRLIPAARGGEISIPCQPRAAPKATILWSKGTEILGNSTRVTVTLDGTLIIRNISRSDEGKYTCFAENFMGKANSTGILSVRDATKITLAPSSADINVGDNLTLQCHASHDPTMDLTFTWTLDDFPVDFDKPGGHYRRASVKETIGDLTILNAQLRHGGTYTCMAQTVVDGASKEATVLVRGPPGPPGGVVVRDIGDTTVQLSWSRGFDNHSPIAKYTLQARTPPSGKWKQVRTNPVNIEGNAETAQVLGLMPWMDYEFRVSASNILGTGEPSGPSSRIRTKEAVPSVAPSGLSGGGGAPGELTINWTPMSREYQNGDGFGYLLSFRRQGSSSWQTARVPGADTQYFVYSNDSIHPYTPFEVKIRSYNRRGDGPESLTAIVYSAEEEPKVAPAKVWAKGSSSSEMNVSWEPVLQDMNGILLGYEIRYWKAGDKEAAADRVRTAGLDSSARVTGLYPNTKYHVTVRAYNRAGTGPASPSADAMTMKPPPRRPPGNISWTFSSSSLSLKWDPVVPLRNESTVTGYKMLYQNDLQPTPMLHLTSKNWIEIPVPEDIGHALVQIRTTGPGGDGIPAEVHIVRNGGTSMMVES
B3: Cntn3 (protein, UniProt Q07409 20-1002)
chain: ELLLQGPVFIKEPSNSIFPVDSEDKKITLNCEARGNPSPHYRWQLNGSDIDTSLDHRYKLNGGNLIVINPNRNWDTGSYQCFATNSLGTIVSREAKLQFAYLENFKTRMRSTVSVREGQGVVLLCGPPPHSGELSYAWVFNEYPSFVEEDSRRFVSQETGHLYIAKVEPSDVGNYTCVVTSTVTNTRVLGSPTPLVLRSDGVMGEYEPKIEVQFPETLPAAKGSTVRLECFALGNPVPQINWRRSDGMPFPNKIKLRKFNGMLEIQNFQQEDTGSYECIAENSRGKNVARGRLTYYAKPYWLQLLRDVEIAVEDSLYWECRASGKPKPSYRWLKNGDALVLEERIQIENGALTITNLNVTDSGMFQCIAENKHGLIYSSAELKVVASAPDFSRNPMKKMVQVQVGSLVILDCKPRASPRALSFWKKGDMMVREQARVSFLNDGGLKIMNVTKADAGTYTCTAENQFGKANGTTHLVVTEPTRIILAPSNMDVAVGESVILPCQVQHDPLLDIMFAWYFNGALTDFKKDGSHFEKVGGSSSGDLMIRNIQLKHSGKYVCMVQTGVDSVSSAAELIVRGSPGPPENVKVDEITDTTAQLSWTEGTDSHSPVISYAVQARTPFSVGWQSVRTVPEVIDGKTHTATVVELNPWVEYEFRIVASNKIGGGEPSLPSEKVRTEEAAPEIAPSEVSGGGGSRSELVITWDPVPEELQNGGGFGYVVAFRPLGVTTWIQTVVTSPDNPRYVFRNESIVPFSPYEVKVGVYNNKGEGPFSPVTTVFSAEEEPTVAPSHISAHSLSSSEIEVSWNTIPWKLSNGHLLGYEVRYWNNGGEEESSRKVKVAGNQTSAVLRGLKSNLAYYTAVRAYNSAGAGPFSATVNATTKKTPPSQPPGNVVWNATDTKVLLNWEQVKAMENESEVTGYKVFYRTSSQNNVHVLNTNKTSAELLLPIKEDYIIEVKATTDGGDGTSSEQIRIPRITSMDARGS
B4: Cntn4 (protein, UniProt Q69Z26 19-1000)
chain: DDYTLHGPVFVQEPSHVMFPLDSEEKKVKLSCEVKGNPKPHIRWKINGTDVDIGMDFRYSVVDGSLLINNPNKTQDAGTYQCIATNSFGTIVSREAKLQFAYLENFKTRTRSTVSVRRGQGMVLLCGPPPHSGELSYAWIFNEYPSYQDNRRFVSQETGNLYIAKVEKSDVGNYTCVVTNTVTNHKVLGPPTPLILRNDGVMGEYEPKIEVQFPETVPAEKGTTVKLECFALGNPVPTILWRRADGKPIARKARRHKSNGILEIPNFQQEDAGSYECVAENSRGKNVAKGQLTFYAQPNWVQIINDIHVAMEESVFWECKANGRPKPTYRWLKNGDPLLTRDRIQIEQGTLNITIVNLSDAGMYQCVAENKHGVIFSSAELSVIAESPDFSRTLLKRVTLVKVGGEVVIECKPKASPRPVYTWRKGREILRENERITISEDGNLRIINVTKSDAGSYTCIATNHFGTASSTGNVIVKDPTKVMVPPSSMDVTVGESIVLPCQVTHDHSLDIVFTWTFNGHLIDFDKDGDHFERVGGQDSAGDLMIRNIQLKHAGKYVCMVQTSVDKLSVAADLIVRGPPGPPEAVTIDEITDTTAQLSWRPGPDNHSPITMYVIQARTPFSVGWQAVNTVPDLVDGKTFTATVVGLNPWVEYEFRTVAANVIGIGEPSRPSEKRRTEEALPEVTPANVSGGGGSKSELVITWETVPEELQNGRGFGYVVAFRPHGKMIWMLTVLASADASRYVFRNESVRPFSPFEVKVGVFNNKGEGPFSPTTLVYSAEEEPTKPPASIFARSLSATDIEVFWASPIGKNRGRIQGYEVKYWRHDDKEENAKKIRTVGNQTSTKITNLKGSALYHLSVKAYNSAGTGPSSATVNVTTRKPPPSQPPGNIIWNSSDSKIILNWDQVKALDNESEVKGYKVLYRWNRQSSTSVIETNKTSVELSLPFDEDYIIEIKPFSDGGDGSSSEQIRIPKISNSYARGS
B5: Cntn5 (protein, UniProt P68500 24-1071)
chain: LSGLSTSYAALLRIKKSSTSPFGSKSRPRFSSPSLGTISVSPPSWRGAAQQYHSPGNLYHSSDAFRQDESVDYGPVFVQEPDDVIFPTDSDEKKVALNCEVRGNPSPSYRWLRNGTEIALESDYRYSLIDGTFIISNPSELRDSGLYQCLATNSFGSILSREATLQFAYLGNFSGRTRSAVSVREGQGVVLMCSPPPHSPEIIYSWVFNEFPSFVAEDSRRFISQETGNLYISKVQTSDVGSYICLVKNAVTNARVLSPPTPLTLRNDGVMGEYEPKIEVHFPFTVTAAKGTTVKMECFALGNPVPTITWMKVNGYIPSKSRLRKSQAVLEIPNLQLDDAGIYECTAENSRGKNSFRGQLQIFTYPHWVQKLNDTQLDSGSPLQWECKATGKPRPTYRWLKNGAPLLPQSRVDTVNGILAIQSVNQSDAGMYQCLAENKYGAIYASAELKILASPPSFELNQVKKSIIVTKDRGVLIECEPQGSPKPAISWRKGDKAVRANKRIAILPDGSLRILNASKADEGKYICQGVNIFGSAEIIASLSVKEPTRIELTPKRTELTVGESIVLNCKAIHDASLDVTFYWTLKGQPIDFEKEGGHFENIRAQASSADLMIRNILLMHAGRYGCRVQTTADSVSDEAELLVRGPPGPPGVVIVEEITESTATLSWSPATDNHSPISSYNLQARSPFSLGWQTVKTVPEVITGDMESAMAVDLNPWVEYEFRVVATNPIGTGDPSIPSRMIRTNEAVPKTAPSNVSGRSGRRHELVIAWEPVSEEFQNGEGFGYIVAFRPNGTRGWKEKMVTSSEASKFIYRDESVPPLTPFEVKVGVYNNKGDGPFSQIVVICSAEGEPTAAPTDVTATSVSVSEIFVVWKHVKESLGRPQGFEISYWKDTEPEDSVETVRTRGNESFVMLTGLEGNTLYHLTVRAYNGAGYGPPSREASTTTKRHPPREPPGNLRWEQQGSQVSLGWEPVRPLANESEVMGYKVFYRQEGHSEGQVIETQKPQAVVPLPEAGVYIIEVRAYSEGGDGTASSQIRVPSYSGGKITS

Biological target: T1, IgLON5 (mouse (endogenous in primary hippocampal neurons))
Assay: proximity labelling; live primary mouse hippocampal neurons (DIV12) treated with α-IgLON5#1 or pCtrl (1 μg/ml, 60 min, 37°C), fixed with 4% PFA, HRP-conjugated α-human secondary antibody, 250 μM biotin-tyramide and 50 μM H2O2 for 1 min; streptavidin bead pulldown and MS; enrichment of α-IgLON5#1 against pCtrl

binding, binds:
Cdh2 (from UniProt P15116 160-906), OPCML (=IgLON1), Cacna2d2 (from UniProt Q6PHS9 19-1154), Nrcam (from UniProt Q810U4 30-1256), Itga7 (from UniProt Q61738 34-1179), Scn3b (from UniProt Q8BHK2 25-215), Scn1b (from UniProt P97952 19-218), Itga5 (from UniProt P11688 45-1053), Cacna2d1 (from UniProt O08532 25-1103), Ncam, Itgb1 (from UniProt P09055 21-798), kainate receptor subunit GRIK3 (from UniProt B1AS29 32-919), Ca2+-activated potassium channel KCNN3 (from UniProt P58391 1-732), LSAMP (=IgLON3) (from UniProt Q8BLK3), Scn2b (from UniProt Q56A07 30-215), B1, B2, B3, B4, B5
